In PMC9209732, “Transcriptional Regulation of ING5 and its Suppressive Effects on Gastric Cancer”:
No constants are given. Whether binding was seen depends on the method and setting. In cells and extracts the contact can be indirect. Some entries that bind do so weakly or less than the wild type.

By UniProt entry, the sequences of proteins in these tests, tags left out.
UniProt Q8WYH8: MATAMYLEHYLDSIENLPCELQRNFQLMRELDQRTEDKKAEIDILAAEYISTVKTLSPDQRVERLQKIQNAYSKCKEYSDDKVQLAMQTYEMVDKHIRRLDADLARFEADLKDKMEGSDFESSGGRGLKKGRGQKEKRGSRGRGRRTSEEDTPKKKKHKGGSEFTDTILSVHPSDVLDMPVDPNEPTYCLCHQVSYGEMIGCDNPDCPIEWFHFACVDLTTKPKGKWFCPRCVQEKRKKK
UniProt P25490: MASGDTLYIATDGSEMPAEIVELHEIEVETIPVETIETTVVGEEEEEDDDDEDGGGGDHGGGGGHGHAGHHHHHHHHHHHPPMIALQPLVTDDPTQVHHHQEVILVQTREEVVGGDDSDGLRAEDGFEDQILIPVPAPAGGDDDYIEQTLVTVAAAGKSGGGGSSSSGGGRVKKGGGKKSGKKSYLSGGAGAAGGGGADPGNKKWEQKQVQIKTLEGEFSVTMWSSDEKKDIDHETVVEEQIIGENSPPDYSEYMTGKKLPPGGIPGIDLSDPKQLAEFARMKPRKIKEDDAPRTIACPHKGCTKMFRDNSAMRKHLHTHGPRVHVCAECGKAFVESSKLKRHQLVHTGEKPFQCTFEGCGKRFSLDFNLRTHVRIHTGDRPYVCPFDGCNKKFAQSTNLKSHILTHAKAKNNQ

Biological target: T1, SRF (human (endogenous in AGS and SGC-7901)) (UniProt P11831)
T1 sequence: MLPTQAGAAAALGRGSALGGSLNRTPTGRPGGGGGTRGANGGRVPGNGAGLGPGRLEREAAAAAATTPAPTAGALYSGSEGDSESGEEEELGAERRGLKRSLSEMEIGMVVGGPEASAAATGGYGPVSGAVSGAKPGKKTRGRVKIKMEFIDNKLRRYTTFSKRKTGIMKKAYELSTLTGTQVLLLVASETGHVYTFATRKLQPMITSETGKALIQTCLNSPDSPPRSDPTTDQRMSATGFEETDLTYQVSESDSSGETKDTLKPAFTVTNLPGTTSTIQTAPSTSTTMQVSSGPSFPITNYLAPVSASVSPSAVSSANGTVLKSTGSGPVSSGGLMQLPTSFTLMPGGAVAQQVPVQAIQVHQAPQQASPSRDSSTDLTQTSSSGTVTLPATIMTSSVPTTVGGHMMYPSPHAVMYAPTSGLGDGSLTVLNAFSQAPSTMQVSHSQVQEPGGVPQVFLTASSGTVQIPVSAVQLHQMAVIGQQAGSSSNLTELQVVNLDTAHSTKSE
Assay: co-IP; more than 1 mg protein of AGS and SGC-7901 cells, pre-cleared, 5 ug primary antibody overnight, protein A-Sepharose beads, washed 5 times with 1% NP40 lysis buffer, western blot; cells also treated with SRF or YY1 siRNA (binding weakened)

| Substance | binding |
| --- | --- |
| ING5 (from UniProt Q8WYH8 1-240) | binds |
| YY1 (from UniProt P25490 1-414) | binds |
| p53 (from UniProt P04637 1-393) | binds |
